# The supplement of paper PMC11732987, “Enantioselective OTUD7B fragment discovery through chemoproteomics screening and high-throughput optimisation” (Communications Chemistry, 2025)
# The list shows a part of the results. The data scatter; read single values as rough.
# Compound: ClCC(=O)N[C@H]1CCCc2ccccc12
# Assay: log2 mean competition ratio of IA-DTB cysteine labelling (DMSO/compound) (log2 ratio); higher = stronger cysteine engagement by compound
# Details: 50 µM; treatment time: 4 h; cell line lysate: HEK293T
# Procedure: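 IA-DTB competitive cysteine chemoproteomics in HEK293T RIPA lysate. Lysates were treated with compound 29 or 30 at 50 or 200 µM for 4 h, then IA-DTB (500 µM, 1 h), trypsin-digested, NeutrAvidin-enriched and analysed by diaPASEF. Competition ratio = intensity DMSO / intensity compound (n=4 treated, n=64 DMSO); binding: mean log2 CR ≥ 1 and p ≤ 0.05 plus QC filters. Target is the cysteine site.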
row,Target,log2 mean competition ratio
1,DHX37 C903 (UniProt Q8IY37),-0.251
2,DEPDC7 C129 (UniProt Q96QD5),-0.448
3,DICER1 C214 (UniProt Q9UPY3),-0.409
4,DOCK9 C94 (UniProt Q9BZ29),-0.0936
5,DHX33 C414 (UniProt Q9H6R0),-0.079
6,DNMT1 C1485 (UniProt P26358),0.0595
7,DFFA C38 (UniProt O00273),-0.0046
8,DOK1 C70 (UniProt Q99704),0.407
9,DMXL1 C2618 (UniProt Q9Y485),-0.0857
10,DENND4A C937 (UniProt Q7Z401),-0.0166
11,DENND5B C733 (UniProt Q6ZUT9),0.107
12,DHX40 C573 (UniProt Q8IX18),0.202
13,DIPK2A C126 (UniProt Q8NDZ4),-0.181
14,DIS3 C533 (UniProt Q9Y2L1),0.397
15,DNTTIP1 C156 (UniProt Q9H147),-0.166
16,DIDO1 C498 (UniProt Q9BTC0),-0.148
17,DIMT1 C84 (UniProt Q9UNQ2),-0.0134
18,DNAL1 C50 (UniProt Q4LDG9),-0.155
19,DNMBP C1434 (UniProt Q6XZF7),-0.346
20,DNAJC14 C52 (UniProt Q6Y2X3),-0.0398

# Same assay, conditions: 200 µM; treatment time: 4 h; cell line lysate: HEK293T
row,Target,log2 mean competition ratio
1,DHX37 C903 (UniProt Q8IY37),-0.147
2,DEPDC7 C129 (UniProt Q96QD5),-0.108
3,DICER1 C214 (UniProt Q9UPY3),-0.0569
4,DOCK9 C94 (UniProt Q9BZ29),0.152
5,DHX33 C414 (UniProt Q9H6R0),-0.047
6,DNMT1 C1485 (UniProt P26358),-0.00769
7,DFFA C38 (UniProt O00273),-0.00599
8,DOK1 C70 (UniProt Q99704),-0.189
9,DMXL1 C2618 (UniProt Q9Y485),0.24
10,DENND4A C937 (UniProt Q7Z401),0.151
11,DENND5B C733 (UniProt Q6ZUT9),0.932
12,DHX40 C573 (UniProt Q8IX18),0.186
13,DIPK2A C126 (UniProt Q8NDZ4),0.376
14,DIS3 C533 (UniProt Q9Y2L1),0.0303
15,DNTTIP1 C156 (UniProt Q9H147),0.07
16,DIDO1 C498 (UniProt Q9BTC0),-0.183
17,DIMT1 C84 (UniProt Q9UNQ2),0.00966
18,DNAL1 C50 (UniProt Q4LDG9),-0.261
19,DNMBP C1434 (UniProt Q6XZF7),0.0154
20,DNAJC14 C52 (UniProt Q6Y2X3),-0.0336
